The campaign covered roughly 71,000 compounds. About 310 (0.44%) were called active. Inconclusive means that the source gave no clear call. Such entries were picked first, then a sample of the others. Calls come from the whole dose curve; as a rule, active = well fitted curve in either direction with a large enough effect; inconclusive = small, poorly fitted or top-dose-only effect, or another doubt; inactive = flat fitted curve, though single readings scatter. Where the call is inconclusive, the potency comes from a doubtful curve fit.
Test system: Hsp90 C-terminal peptide / TPR2A (Hop) interaction, human
Assay: qHTS Assay for Disrupters of an Hsp90 Co-Chaperone Interaction
Details: AlphaScreen TPR2A-His6 binding biotin-Hsp90 C-terminal peptide; activity change, negative = inhibition: at 57 µM (top of the series) unless noted
% is set by controls: 0 for no effect and ±100 for the full control effect; potency is the fitted concentration of half-maximal effect.

Row | Compound | Potency | activity change, negative = inhibition
1 | CCC(C)Nc1ccc(NC(C)CC)cc1 (centres undefined) | inconclusive: 31.6 µM [inhibitor, partial curve] | 
2 | O=C(O)c1cccc([N+](=O)[O-])c1 |  | inactive: 2.68%
3 | [N-]=[N+]=Nc1ccc(C(=O)CSC[C@@H](NC(=O)CC[C@@H](N)C(=O)O)C(=O)NCC(=O)O)cc1 |  | inactive: -0.58%
4 | Cc1nc2c(-c3ccc(F)cc3)c(C)nn2c(N2CCOCC2)c1C | inconclusive: 25.1 µM [activator, partial curve] | 
5 | O=C(O)CCc1ccc(-c2ccc(F)cc2)n1CC(=O)O |  | inconclusive: 43.5%
6 | CC1(C)CC(=O)c2cc(C(=O)N3CCN(CCO)CC3)c(=O)n(-c3ccc(Cl)cc3)c2C1 |  | inconclusive: 58.1% [at 11 µM]
7 | COCC(=O)Nc1nc2n(n1)C(c1ccccc1)CC(c1ccc(OC)cc1)N2 (centres undefined) |  | inconclusive: 31.4%
8 | NC(=O)C1CCN(c2nc(-c3ccccc3)nc3c2oc2ccccc23)CC1 |  | inactive: -2.65%
9 | O=C1CCCc2nc(N3CCN(c4ccccc4)CC3)ncc21 |  | inconclusive: 48.5%
10 | Cc1ccc(-c2nc(NC(=O)CSc3nnc(C)s3)ns2)cc1 |  | inconclusive: 47.8% [at 2.3 µM]
11 | O=C(O)c1cc(NC(=O)C2CCCO2)cc(NC(=O)C2CCCO2)c1 (centres undefined) |  | inconclusive: 52.5%
12 | CCN1CCN(c2oc(COc3ccc(-c4ccccc4)cc3)nc2C#N)CC1 | inconclusive: 20 µM [inhibitor, single point] | 
13 | CC1=CC(C)(C)N2C(=O)C3(C(C#N)=C(N)Oc4cc(O)ccc43)c3cccc1c32 (centres undefined) |  | inactive: -9.45%
14 | Cc1ccccc1-n1nnnc1SCc1csc(-c2ccccc2)n1 | inconclusive: 31.6 µM [activator, single point] | 
15 | COc1ccc(CCNc2oc(Cc3cccc4ccccc34)nc2C#N)cc1OC | inconclusive: 31.6 µM [inhibitor, single point] | 
16 | CCN(CC)S(=O)(=O)c1ccc2c(c1)c(=O)c(C(=O)NCCN(C)CCc1ccccc1)cn2C |  | inconclusive: 36.3%
17 | NS(=O)(=O)c1ccc(N=Nc2nc3[nH]cnc(=S)c3[nH]2)cc1 |  | inactive: -2.95% [at 11 µM]
18 | CCCCOc1ccc(C(=O)Nc2cccc(C)n2)cc1 |  | inconclusive: 96.8%
19 | CCOC(=O)c1c(NC(=O)C2CCN(S(=O)(=O)c3cccs3)CC2)sc(C)c1C |  | inconclusive: 41.6%
20 | COc1ccccc1NC(=O)CSc1nnc(-c2ccc(C)cc2)o1 |  | inactive: 0.09%
21 | CC(=O)Nc1cccc(C(=O)Oc2cccc(C)c2)c1O |  | inconclusive: 39.2%

Row | Compound | Potency | activity change, negative = inhibition
22 | CCOC(=O)Nc1ccc(C(=O)Oc2ccccc2)c(O)c1 |  | inconclusive: 82.5%
23 | CCN(CC)CCCN1C(=O)C(O)=C(C(=O)c2ccc(C)o2)C1c1ccco1 (centres undefined) |  | inconclusive: 48.7%
24 | O=C(c1cccc(S(=O)(=O)N2CCCC2)c1)N1CCN(c2ccccc2F)CC1 | inconclusive: 10 µM [inhibitor, partial curve] | 
25 | O=C(Nc1ccc(CCC(=O)N2CCCC2)cc1)c1ncn[nH]1 | inconclusive: 25.1 µM [inhibitor, partial curve] | 
26 | O=C(Nc1cccnc1)c1ccc(COCC(F)(F)F)cc1 |  | inconclusive: 48.8%
27 | COc1ccc(Cc2c(O)nc(SC)n(C(C)=O)c2=O)cc1 |  | inactive: -2.98%
28 | CCOC(=O)c1cc(-c2ccco2)nc2c1c(C)nn2-c1ccccc1 |  | inactive: 2.56%
29 | CS(=O)(=O)Nc1cccc2cccnc12 | inconclusive: 25.1 µM [inhibitor, partial curve] | 
30 | Cc1cc(C)n(-c2ccn(Cc3ccc(Cl)cc3Cl)c(=O)n2)n1 |  | inactive: -1.42%
31 | CCS(=O)(=O)N1CCC(C(=O)NCc2ccccn2)CC1 | inconclusive: 25.1 µM [inhibitor, partial curve] | 
32 | CNc1nc(-c2ccc(C(=O)N(C)C)cc2)nc2ccccc12 |  | inactive: -0.441%
33 | O=C(O)CCCC[C@H]1CCSS1 |  | inactive: 0.909%
34 | COC(=O)N1CCC2(CC1)CN(C(=O)Nc1cccc(F)c1)C2 |  | inactive: -2.53%
35 | Cn1cnnc1SCCC(=O)Nc1ccccc1 |  | inconclusive: 48.4%
36 | CCN(CCCCOC(=O)c1ccc(OC)c(OC)c1)[C@@H](C)Cc1ccc(OC)cc1 |  | inactive: -2.88% [at 26 µM]
37 | COc1ccc(-c2nnc(SCC#CCO)o2)cc1OC |  | inconclusive: 37.8%
38 | CCOc1cc(C(=O)Nc2ccc3c(c2)OCO3)ccc1OC(F)F |  | inactive: -6.42%
39 | Cn1nc(-c2ccc(Cl)cc2)c2cc(C(=O)NCCCN3CCCC3)sc21 |  | inactive: 3.92% [at 2.3 µM]
40 | O=C(NCC12CC3CC(CC(C3)C1)C2)c1cc2n(n1)C(C(F)(F)F)CC(c1ccco1)N2 (centres undefined) |  | inconclusive: 46.9%
41 | CCCC[C@@H]1C[C@H]1C(NC(=O)c1ccc(-c2ccccc2)cc1)c1ccc(-c2ccccc2)cc1 (some centres undefined) |  | inactive: -4.75%
42 | CCCN1C[C@H](CSC)C[C@H]2c3cccc4[nH]cc(c34)C[C@@H]21 |  | inconclusive: 35.8%

5 entries from above, as tab-separated lines.
Row	Compound	Potency	activity change, negative = inhibition
5	O=C(O)CCc1ccc(-c2ccc(F)cc2)n1CC(=O)O		inconclusive: 43.5%
8	NC(=O)C1CCN(c2nc(-c3ccccc3)nc3c2oc2ccccc23)CC1		inactive: -2.65%
16	CCN(CC)S(=O)(=O)c1ccc2c(c1)c(=O)c(C(=O)NCCN(C)CCc1ccccc1)cn2C		inconclusive: 36.3%
17	NS(=O)(=O)c1ccc(N=Nc2nc3[nH]cnc(=S)c3[nH]2)cc1		inactive: -2.95% [at 11 µM]
26	O=C(Nc1cccnc1)c1ccc(COCC(F)(F)F)cc1		inconclusive: 48.8%

(cont.)

Row | Compound | Potency | activity change, negative = inhibition
43 | c1ccc(Nc2ncnc3ccc(-c4cccnc4)cc23)cc1 |  | inactive: 3.74%
44 | Cn1c(=O)c2c(nc(SCc3ccccn3)n2C)n(C)c1=O |  | inconclusive: 40.8%
45 | COc1ccc2nc(N3CCCC3)[nH]c2c1 |  | inactive: -2.38%
46 | Oc1ccc(-c2nc3ncccn3c2Nc2ccc3c(c2)OCCO3)cc1 | inconclusive: 12.6 µM [inhibitor, partial curve] | 
47 | CCOc1ccc(OCC)c(NC(=O)CSc2nc3c(c(=O)n(C)c(=O)n3C)n2CC)c1 |  | inactive: -0.31%
48 | OCCCCNc1cccc2ccccc12 |  | inactive: -7%
49 | c1ccc(Cn2nnnc2C(c2cccs2)N2CCc3ccccc3C2)cc1 (centres undefined) | inconclusive: 31.6 µM [activator, single point] | 
50 | N/N=C1/c2ccccc2N[C@H]1OC(=O)Nc1cccc(Cl)c1 |  | inactive: -7.46% [at 11 µM]
51 | CCOC(=O)c1cnc(-n2nc(C)cc2C)nc1NC | inconclusive: 25.1 µM [inhibitor, single point] | 
52 | Cc1onc(-c2c(F)cccc2Cl)c1C(=O)Nc1cccc2nsnc12 | inconclusive: 25.1 µM [activator, single point] | 
53 | Cc1sc2ncnc(-n3cnc4ccccc43)c2c1C |  | inactive: -3.93%
54 | Cc1nn(-c2nc3ccccc3s2)c(C)c1Oc1ccccc1O |  | inactive: -3.48%
55 | CCOC(=O)C1CCCCN1Cc1cc(Cl)ccc1O (centres undefined) | inconclusive: 31.6 µM [activator, single point] | 
56 | Cc1ccccc1OCC(=O)Nc1ccccc1N1CCCCC1 | inconclusive: 25.1 µM [activator, single point] | 
57 | CCC(C)(C)n1nnnc1C(c1ccc(C)cc1)N1CCN(Cc2cccnc2)CC1 (centres undefined) |  | inactive: -1.6%
58 | Cc1cccc(NC(=O)c2ccccc2C(=O)O)c1 |  | inactive: -2.22%
59 | CCOc1ccc(-c2cc(C(=O)N3CCN(c4ccccn4)CC3)c3ccccc3n2)cc1 |  | inactive: -4.25%
60 | COc1ccc(C2Nc3ccccc3C(=O)N2Cc2ccco2)cc1COc1ccc(NC(C)=O)cc1 (centres undefined) |  | inconclusive: 27.6%
61 | Cc1cnc(NC(=O)CSc2ncc(-c3ccccc3)n2Cc2ccco2)s1 | inconclusive: 31.6 µM [inhibitor, single point] | 
62 | CCOc1ccc(Br)cc1-c1noc(-c2cccs2)n1 | inconclusive: 12.6 µM [activator, partial curve] | 
63 | CCCc1cc(=O)[nH]c(SCC(=O)NC2CCCCC2)n1 |  | inconclusive: 32.2%

Row | Compound | Potency | activity change, negative = inhibition
64 | CN(C)c1ccc(C(=C2C=CC(=[N+](C)C)C=C2)c2ccc(N(C)C)cc2)cc1 | inconclusive: 12.6 µM [inhibitor, partial curve] | 
65 | CCN(CC)S(=O)(=O)c1ccc(NCc2ccccc2)nc1 | inconclusive: 20 µM [inhibitor, partial curve] | 
66 | CCCCn1ccnc1C(=O)c1cccc(S(=O)(=O)N2c3ccccc3CC2C)c1 (centres undefined) | inconclusive: 25.1 µM [activator, single point] | 
67 | O=C(Nc1ccccc1C(=O)N1CCCCCC1)c1cccc(S(=O)(=O)N2CCOCC2)c1 |  | inactive: 1.11%
68 | CCCN(CCC)C(=O)C1CCN(c2cc(C)nc3c(-c4ccc(OC)c(OC)c4)c(C)nn23)CC1 |  | inconclusive: 48.3%
69 | CC(C)Cc1nc2oc3c(NCc4cccnc4)ncnc3c2c2c1CCC2 |  | inactive: -0.954%
70 | CCc1ccc(NC(=O)NCCN2CCc3ccccc3C2)cc1 |  | inactive: -6.85%
71 | Cn1c(=O)c2c(ncn2CN2CCN(Cn3cnc4c3c(=O)n(C)c(=O)n4C)CC2)n(C)c1=O |  | inactive: -2.97% [at 11 µM]
72 | Nc1nc(-c2cccs2)c(NC(=O)c2ccccc2)s1 |  | inactive: -18.7%
73 | Clc1ccc(Cl)c2sc(N3CCCC3)nc12 | inconclusive: 31.6 µM [activator, single point] | 
74 | Cn1c(Cc2csc(N)n2)nnc1SCC(=O)NCc1ccccc1 | inconclusive: 31.6 µM [inhibitor, single point] | 
75 | O=c1ccc2ccccc2o1 |  | inactive: -1.53%
76 | C=CCn1c(N)c(C(=O)NCCC2=CCCCC2)sc1=S |  | inconclusive: 27.4%
77 | Cc1noc(C)c1-c1nccc(N(C)C)n1 |  | inactive: -2.47%
78 | CCc1c(C)nc(N)n2c(SCC(=O)N3CCN(c4ccccc4F)CC3)nnc12 |  | inconclusive: 50.6%
79 | Cc1ccc(-n2c(SCC(N)=O)nnc2-c2ccccn2)cc1C | inconclusive: 31.6 µM [inhibitor, partial curve] | 
80 | COc1ccc(CCNC(=O)c2cc3c(=O)n4cccc(C)c4nc3n(Cc3ccncc3)c2=N)cc1 |  | inactive: 0.181%
81 | COc1cccc(Cn2c(=O)c(-c3cccs3)nc3cnc(Nc4cccc(OC)c4)nc32)c1 | active: 7.94 µM [activator] | 
82 | CC1CCN(S(=O)(=O)c2cccc(C(=O)Nc3ccccn3)c2)CC1 |  | inactive: -2.62%
83 | COc1cccc(-n2c(COc3ccc(C)cc3)nnc2SCC(=O)O)c1 |  | inconclusive: 35.6%
84 | CN1CCc2c(sc3c2c(=O)n(-c2ccccc2)c2nncn32)C1 |  | inconclusive: 31.3%
